Percent effect of library compounds

Sequences of proteins named here, by UniProt entry; tags and fusion partners are left off. Residues count along the entry.
UniProt A4I591, 1-473: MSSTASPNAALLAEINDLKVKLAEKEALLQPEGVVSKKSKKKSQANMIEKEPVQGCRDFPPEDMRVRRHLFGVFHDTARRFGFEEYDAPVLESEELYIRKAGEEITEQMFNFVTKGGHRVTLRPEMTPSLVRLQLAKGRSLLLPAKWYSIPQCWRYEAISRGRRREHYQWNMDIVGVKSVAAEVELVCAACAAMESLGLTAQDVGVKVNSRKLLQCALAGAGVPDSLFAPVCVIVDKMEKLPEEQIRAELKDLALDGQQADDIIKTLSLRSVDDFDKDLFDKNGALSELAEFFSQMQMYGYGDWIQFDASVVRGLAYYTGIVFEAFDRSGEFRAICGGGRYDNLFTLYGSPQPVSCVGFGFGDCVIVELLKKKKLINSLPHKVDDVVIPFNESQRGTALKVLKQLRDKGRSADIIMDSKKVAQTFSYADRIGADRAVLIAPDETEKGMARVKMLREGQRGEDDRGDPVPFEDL

Data taken from ChEMBL document CHEMBL3988442, “University of Dundee, Small-Polar-MMV Screening Library” (2021).

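Enzyme assay of histidyl-tRNA synthetase; the read-out is not stated. Target: Histidine-tRNA ligase, Leishmania infantum (UniProt A4I591). Concentration: 30 µM. Direction is inferred from retests: higher values go with stronger inhibition. The assay is labelled LdHisRS but filed under L. infantum. Size under these conditions: about 69,000 compounds, about 410 of them at 50% or above in at least one test.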

Each number is a percent effect as filed.
The controls that fix the scale are not given in the record; negative values are as filed.
This is an unselected part of the compounds tested.

- COc1ccc(CNC(=O)Nc2ccc(=O)n(C)c2)cc1 | 114.3%
- Fc1cnc(N2CCn3c(CN4CCCC4)nnc3C2)nc1 | -3.03%
- O=C(NCC1CCS(=O)(=O)C1)c1ccc(NC(=O)c2ccco2)cc1 (stereo not given) | 18.09%
- O=C(NCCN1CCOCC1)Nc1cnc2cc(Cl)ccc2c1O | -3.125%
- CCN(CC)C(=O)Cn1ccc2cc(NC(=O)NC3CC3)ccc21 | 25%
- Cc1cccc(NS(=O)(=O)c2cc3c(c(C(=O)O)c2)OCCO3)c1 | 2.679%
- O=C(C1CCOc2ccccc2C1)N1Cc2cnn(CCO)c2C1 (stereo not given) | -4%
- COc1cccc2c1OCC(NC(=O)NCCc1ccccn1)C2 (stereo not given) | 4.11%
- CCC(=O)N1CCCCC1c1nc(O)c2c(n1)CN(S(=O)(=O)CC)CC2 (stereo not given) | 4.317%
- O=C(NCc1cncc2c1CCN(Cc1cccc(F)c1)C2)C1CC1 | 3.81%
- COc1ccccc1CNC(C)c1ccc(-n2ccnc2)cc1 (stereo not given) | 21.28%
- Cc1nc(CN2CCCn3c(nc(Cn4cncn4)cc3=O)C2)cs1 | -2.655%
- CC(C)n1nnnc1-c1ccc(NC(=O)CCC(F)(F)F)cc1F | 1.124%
- COc1cc(-n2cccc2)c(Cl)cc1C(N)=O | 19.28%
- O=C(c1ccccn1)N1CCN(c2cnnc(N3CCCC3)c2)CC1 | 2.597%
- Fc1ccccc1CN(CCCn1ccnc1)CC1CCOC1 (stereo not given) | 7.143%
- O=C(c1cncc2ccccc12)N1CCC[C@@H]1CO | 8.772%
- COc1ccc(CN2CCCCCC2c2cccs2)c(O)c1 (stereo not given) | 15.73%
- CCOCC(=O)NCCCn1ccnc1-c1ccccc1 | 19.57%
- CN(C)C1CCCN(C(=O)CCc2csc(N)n2)CC1 (stereo not given) | 13.89%
- Cn1nccc1CNC(=O)NC1CCN(c2ncccc2Cl)C1 (stereo not given) | 12.9%
- COCC(NC(=O)c1cn2ccsc2n1)c1ccnn1C (stereo not given) | 25.3%
- O=C(NC1CC1)N1CC[C@H]2[C@H]1CCN2c1ncccn1 | 15.38%
- CCc1cc(=O)n(CC(=O)NCC2CCCO2)c(-c2cccc(F)c2)n1 (stereo not given) | 15.93%
- Cc1noc([C@@H]2C[C@H]3OCC[C@H]3N(Cc3ccoc3)C2)n1 | 8.824%
- CC(C)c1cc(C(=O)NCC(O)C2CCOCC2)nn1C(C)(C)C (stereo not given) | 0%
- Cc1nn(C)c(C)c1OCC(=O)N1CCCc2c(F)ccc(F)c21 | 11.67%
- Cc1nnc2n1CC(CNCc1nc(-c3cccs3)no1)CC2 (stereo not given) | 24.66%
- Cc1ccc(C(C)(C)CNC(=O)NC(C)Cn2cncn2)cc1 (stereo not given) | 10.67%
- CC[C@@H](CO)Nc1nccc(-c2c[nH]c3cc(C(=O)OC)ccc23)n1 | 2.857%
- O[C@@]1(c2ccccn2)CC[C@H]2CN(Cc3cccc(Cl)c3Cl)C[C@H]21 | 11.11%
- CCCc1cc(=O)[nH]c2nnc(SCC(=O)NCCc3ccccc3)n12 | 8.264%
- O=C(COCc1ccccc1)N1CCN(c2ccc(Cl)cn2)CC1 | 14.67%

For reference, 2 entries once more:

| SMILES | percent effect |
|---|---|
| `CCc1cc(=O)n(CC(=O)NCC2CCCO2)c(-c2cccc(F)c2)n1` (stereo not given) | 15.93 |
| `COc1cc(-n2cccc2)c(Cl)cc1C(N)=O` | 19.28 |